# Laboratory results published in patent publication US11573241B2, “Total cellular iron as a marker of cancer stem cells and uses thereof” (Institut National de la Sante et de la Recherche Medicale …, priority 2016, dated 2023).
# Format: physicochemical
# Details: FeCl2, 1H-NMR
# Source text: FIG. 1. Salinomycin and AM5 sequester iron in lysosomes and trigger ferritin degradation. a, Chemical strategy to visualize small molecules in cells. b, Fluorescence microscopy images of U2OS cells showing the subcellular localization of labeled Sal derivatives AM4, AM5, and AM9. Lysotracker Deep Red stains the lysosomes and 4′,6-diamidino-2-phenylindole (DAPI) stains nuclear DNA. Scale bar, 10 μm. Zoom corresponds to ×6. c, Live cell fluorescence microscopy images showing the subcellular localization of iron(II) using the fluorogenic reduction of RhoNox-1 (green) in HMLER CD24^low cells treated with Sal or AM5 or AM9 (0.5 μM) for 48 h. Lysotracker deep red stains the lysosomes (red) and DAPI stains nuclear DNA (blue). Scale bar, 10 μm. d, Fixed cell fluorescence microscopy images showing the subcellular localization of iron(II) using the fluorogenic reduction of RhoNox-1 (green) in HMLER CD24^low cells treated with Sal or AM5 or AM9 (0.5 μM) for 48 h. e, Quantification of lysotracker-positive vesicles colocalizing with RhoNox-1 in fixed cells was carried out by means of visual inspection. At least 75 cells were counted per condition. Data represent three independent biological replicates (n=number of lysotracker vesicles). […] Spectra were recorded in CD3CN. […] For k and I, Samples prepared in CD3OD, spectra recorded at 298 K, 5 min following sample preparation (600 MHz). […]
structure (smiles),measurement,value
"CC[C@@H](C(=O)[C@@H](C)[C@@H](O)[C@H](C)[C@@H]1O[C@@H]([C@@H](CC)C(=O)O)CC[C@@H]1C)[C@H]1O[C@]2(C=C[C@@H](O)[C@]3(CC[C@@](C)([C@H]4CC[C@](O)(CC)[C@H](C)O4)O3)O2)[C@H](C)C[C@@H]1C [Sal, salinomycin, reference compound]",interaction with iron(II),interacted with iron(II)
